# Library screening results

Protein sequences, listed by entry. Tags and fused reporters are not part of them.
UniProt E9BF75, entry or part of it: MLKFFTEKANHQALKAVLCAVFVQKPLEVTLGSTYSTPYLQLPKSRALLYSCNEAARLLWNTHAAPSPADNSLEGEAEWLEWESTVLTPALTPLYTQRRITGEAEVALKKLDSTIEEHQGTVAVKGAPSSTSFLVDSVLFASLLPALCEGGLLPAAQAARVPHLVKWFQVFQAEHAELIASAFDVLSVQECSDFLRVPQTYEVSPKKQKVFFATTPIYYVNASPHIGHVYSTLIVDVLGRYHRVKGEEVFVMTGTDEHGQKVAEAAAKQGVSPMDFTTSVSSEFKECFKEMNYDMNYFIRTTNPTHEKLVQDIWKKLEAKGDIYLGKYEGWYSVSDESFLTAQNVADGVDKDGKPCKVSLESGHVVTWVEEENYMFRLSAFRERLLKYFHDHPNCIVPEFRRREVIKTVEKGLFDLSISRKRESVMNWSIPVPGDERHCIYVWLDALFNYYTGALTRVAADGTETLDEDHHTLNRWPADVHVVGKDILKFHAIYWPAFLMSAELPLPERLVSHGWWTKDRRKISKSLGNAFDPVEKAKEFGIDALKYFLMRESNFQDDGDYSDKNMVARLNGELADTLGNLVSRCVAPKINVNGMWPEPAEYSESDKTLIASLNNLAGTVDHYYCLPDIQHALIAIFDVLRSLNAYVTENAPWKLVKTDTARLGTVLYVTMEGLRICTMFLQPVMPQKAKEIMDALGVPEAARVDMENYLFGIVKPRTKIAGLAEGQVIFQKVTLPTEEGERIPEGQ

LdMetRS: 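Methionyl-tRNA synthetase (putative), Leishmania donovani (UniProt E9BF75). Primary screen of methionyl-tRNA synthetase; the read-out is not stated. The test concentration is not given. The values are filed as inhibition. Size under these conditions: about 68,000 compounds, about 24 of them at 50% or above in at least one test.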
Mtb heat-shock: 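Assay on Mycobacterium tuberculosis, filed only as a heat shock assay from Cornell; the read-out is not stated. The concentration is filed as 10 mM, unlikely as a test dose, so the dose is not known. The record gives no direction; compounds that gave an IC50 in retests scored well above the rest, so higher reads as stronger inhibition. About 69,000 compounds were tested under these conditions; 1.4% (about 930) showed 50% or more at least once.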

All values are in %. The record does not define 0% and 100%; most values in the screen are far below 50% and negative numbers occur (in some assays of this library far below -100). The compounds are a random part of those screened. A dash means the value is not listed here; it may have been measured.

SMILES	LdMetRS	Mtb heat-shock
c1cc(-c2noc(-c3cc(C4CC4)on3)n2)cc(N2CCCCC2)n1	20.91	-0.8049
COc1ncccc1CN1CCc2[nH]nc(C(=O)N3CCCC3C)c2C1.O=C(O)C(F)(F)F.O=C(O)C(F)(F)F (stereo not drawn)	-	-4.514
O=C(CC[C@@H]1CCCN2CCCC[C@H]12)NCCc1nc(O)cc(O)n1	11.2	-
CCCc1noc(CN2CCN(c3nccs3)CC2)n1	14.77	15.81
CCc1nnc(CN(C)c2nccc(N3CCCC(O)C3)n2)o1 (stereo not drawn)	11.23	-20.06
CCc1ncc(C(=O)N2CC[C@@H]3CC[C@H](C2)N3C)cn1	8.403	-
O=C(Cc1ccc2c(c1)OCCCO2)Nc1nnn[nH]1	17.62	-1.603
CCN(C)C[C@@H]1CN(C(=O)c2cc(-c3ccc(F)cc3)n[nH]2)C[C@@H]1CO	15.24	10.02
CN(C)C[C@]12COC[C@H]1CN(C(=O)Cc1ccc3c(c1)OCO3)C2	-2.614	-
CN(C)CCN(C)C(=O)Cn1cccc2cc(-c3ccc(F)cc3)nc1-2	18.35	93.82
O=C(c1ncccn1)N1CCC[C@]2(C[C@@H](OCC3CC3)CO2)C1	10.45	3.826
Cc1ncc(C(=O)Nc2cncnc2N(C)C)c(Cl)c1Cl	18.68	-19.59
O=C(COc1ccccc1O)N1CCOC(C(F)(F)F)C1 (stereo not drawn)	4.192	-9.871
COc1ccc(-c2nnc(SCC(=O)NCC(C)C)[nH]2)c(OC)c1	19.01	32.15
CC(=O)N1CCCN(C(=O)NCc2cccnc2OC(C)C)CC1	18.44	2.403
CC(C)[C@H]1CN(C(=O)CO)C[C@@H]1N(C)C	7.572	3.734
Cc1cc(CN2CCc3cncnc3C2)no1	7.494	1.736
O=C(O)C(F)(F)F.[H][C@@]12CCN(CC(=O)NC)C[C@]1([H])CN(C(=O)c1ccc(C)nc1)C2	-	-4.48
CN1CCC(Cc2nc(-c3ccnn3C)n(Cc3ccccc3)n2)CC1	-6.959	-25.32
O=C(Nc1nnn[nH]1)c1ccc(-n2cccc2)c(F)c1	21.05	-8.564
O=S(=O)(c1c(F)cccc1F)N1CCCC1c1nnc2n1CCCCC2 (stereo not drawn)	13.51	16.8
CC(=O)N1CCO[C@@H]2CN(Cc3ccccc3F)C[C@@H]2C1	11.95	-
Cc1ncsc1CN1CC[C@H]2OCC[C@@]2(C(=O)N2CCCO2)C1	14.89	-
Cn1cnc2c1C(COCC1CCOCC1)CN(C(=O)c1ccco1)C2.O=C(O)C(F)(F)F (stereo not drawn)	-	-25.98
CC(=O)Cn1nc(-c2ccccc2F)ccc1=O	10.03	12.99
Cc1nc(CCCNC(=O)c2coc(CN3CCOCC3)c2)sc1C	12.45	-14.12
c1cc(CN2CC[C@@H]3[C@@H](CO[C@H]3CN3CCOCC3)C2)cs1	17.77	-
CCN1CCN(C(=O)c2ccc(=O)n(C)c2)c2ccccc21	12.29	-1.654
CCC(C)n1cnc(S(=O)(=O)N(Cc2cccnc2)C(C)C)c1 (stereo not drawn)	12.37	-28.67
CCN1CCN(C(=O)C2CC(=O)N(c3cnn(C(C)C)c3)C2)CC1 (stereo not drawn)	3.684	17.79
CC(C)C(=O)NC1CCCc2nc(N3CCOCC3)ncc21 (stereo not drawn)	10.94	-10.52
Cc1nnc2n1CCN(Cc1nc3c(F)cccc3[nH]1)C2	14.01	-9.574
COc1ccc(CN[C@@H]2CO[C@H](CNC(=O)NC(C)C)[C@H]2O)cc1	10.75	1.976
COC(=O)c1ccc(NC(C)c2ccc3c(c2)NC(=O)CO3)nn1 (stereo not drawn)	14.61	3.454
O=C(O)C(F)(F)F.O=C(O)C(F)(F)F.[H][C@@]12COC[C@]1(COc1ccccn1)CN(c1cc(OC)ncn1)C2	-	-2.617
c1cc(N2CCCC2c2cnccn2)ncn1 (stereo not drawn)	18.12	-10.62
N#Cc1ccc(N2CCN(c3nccs3)CC2)nc1	5.797	13.72
CC(C)c1nc2c(n1C)CCN(CC(=O)Nc1ccncc1)C2	18.78	5.486
CCn1c(C)nnc1CN(C)C1CCN(Cc2nccn2C)C1 (stereo not drawn)	7.807	-15.32
COCCC(=O)NCCc1nc(N(C)C)ncc1-c1ccncc1	14.95	-3.414
O=C(NCC1CCS(=O)(=O)C1)N(Cc1ccccn1)C1CC1 (stereo not drawn)	7.627	-4.97
COCCOc1ccccc1C(=O)N(C)Cc1ncc(C)c(OC)c1C	11.34	5.234

Some entries from above, unchanged:

SMILES,LdMetRS,Mtb heat-shock
O=C(COc1ccccc1O)N1CCOC(C(F)(F)F)C1 (stereo not drawn),4.192,-9.871
CCN1CCN(C(=O)C2CC(=O)N(c3cnn(C(C)C)c3)C2)CC1 (stereo not drawn),3.684,17.79
CC(=O)N1CCO[C@@H]2CN(Cc3ccccc3F)C[C@@H]2C1,11.95,-
CN(C)C[C@]12COC[C@H]1CN(C(=O)Cc1ccc3c(c1)OCO3)C2,-2.614,-
O=S(=O)(c1c(F)cccc1F)N1CCCC1c1nnc2n1CCCCC2 (stereo not drawn),13.51,16.8

Data taken from ChEMBL document CHEMBL3988442, “University of Dundee, Small-Polar-MMV Screening Library” (2021).